Experimental data reported in paper PMC4264182.
No constants are given. Whether binding was seen depends on the method and setting. Some results given as binding are weak or reduced against the parent protein; the word gives no strength.

Sequences of proteins named here, by UniProt entry; tags and fusion partners are left off. Residues count along the entry.
UniProt P01241, residues 27-217: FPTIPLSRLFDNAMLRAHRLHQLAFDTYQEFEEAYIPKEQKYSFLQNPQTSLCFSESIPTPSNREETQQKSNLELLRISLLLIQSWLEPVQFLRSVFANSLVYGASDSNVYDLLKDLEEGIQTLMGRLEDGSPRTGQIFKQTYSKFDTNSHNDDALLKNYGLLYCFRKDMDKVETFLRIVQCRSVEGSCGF

Target: T1, Mouse growth hormone receptor (mGHR) expressed on 3T3-F442A cells (mouse (endogenous in 3T3-F442A)) (UniProt P16882)
T1 sequence: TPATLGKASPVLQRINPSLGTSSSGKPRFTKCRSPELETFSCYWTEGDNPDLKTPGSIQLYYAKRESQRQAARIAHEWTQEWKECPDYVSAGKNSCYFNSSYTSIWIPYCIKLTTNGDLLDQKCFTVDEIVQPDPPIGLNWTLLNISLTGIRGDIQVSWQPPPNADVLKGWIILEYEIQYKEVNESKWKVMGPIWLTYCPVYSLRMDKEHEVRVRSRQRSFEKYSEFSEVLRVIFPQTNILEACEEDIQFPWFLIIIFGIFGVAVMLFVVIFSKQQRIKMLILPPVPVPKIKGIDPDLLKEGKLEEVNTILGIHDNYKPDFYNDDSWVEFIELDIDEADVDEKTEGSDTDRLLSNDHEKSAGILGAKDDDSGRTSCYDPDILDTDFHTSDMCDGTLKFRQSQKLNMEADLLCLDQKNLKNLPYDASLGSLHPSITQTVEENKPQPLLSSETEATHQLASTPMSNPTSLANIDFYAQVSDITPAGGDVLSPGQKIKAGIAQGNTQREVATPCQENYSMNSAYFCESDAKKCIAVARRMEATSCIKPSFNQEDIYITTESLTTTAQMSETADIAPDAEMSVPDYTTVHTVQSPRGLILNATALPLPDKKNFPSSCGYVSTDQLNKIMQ
Assay: flow cytometry on cells; competitive receptor binding on 3T3-F442A cells (1 x 10^6 cells/tube) in serum-free medium with 1 mg/mL BSA; FITC-GH (15 nM) with increasing concentrations of unlabeled GH, Mab263 or control antibody, 1 h in the dark at 4 °C; only the binder purified

Substance: Human growth hormone conjugated with fluorescein isothiocyanate (FITC-hGH) (from UniProt P01241 27-217) (ligand)
- binding: binds

Substance: Human growth hormone (hGH), unlabeled (from UniProt P01241 27-217) (ligand)
- binding: binds
